Reference: patent publication US11839623B2, “Antiviral prodrugs and formulations thereof” (BOARD OF REGENTS OF THE UNIVERSITY OF NEBRASKA, priority 2018, dated 2023)
Some of these results come from one statement about several compounds together. At least one structure is not confirmed: it was looked up by name or label, or the drawing left a doubt.

Tested on: monocyte-derived macrophages (MDM)
Assay: Cell viability of ABC and its ProTides in MDM (CCK-8)
Assay type: cell-based, human
Conditions: 24 hours
Description: Cell viability of ABC and its ProTides: A CCK-8 Kit was purchased from Dojindo (Rockville, Md.) and used to test cell viability after treatment with ABC and its ProTides. Briefly, MDM plated in a 96-well plate were treated with 100 μl of 0-400 μM ABC and its ProTides for 24 hours. Drug containing medium was removed and replaced with fresh medium. Ten μl of CCK-8 solution was added to each well followed by incubation of the plate for 2 hours at 37° C. The absorbance (at 450 nm) of each well was measured using a microplate reader. The cell viability was calculated according to manufacturer's instructions.

Row | SMILES | drug concentrations at which cell viability was not affected
1 | CCCCCCCCCCCCCCCCCCCCCCOC(=O)C(Cc1ccccc1)NP(=O)(OCC1C=CC(n2cnc3c(NC4CC4)nc(N)nc32)C1)Oc1ccccc1 (mixture of isomers) [M3ABC] | up to 300 μM
2 | Nc1nc(NC2CC2)c2ncn([C@H]3C=C[C@@H](CO)C3)c2n1 [ABC, abacavir] | up to 300 μM
